Results: PubChem BioAssay AID1487 (National Center for Advancing Translational Sciences (NCATS), 2009)
The list shows a part of the results. The main result of the screen is listed elsewhere. These columns were measured beside it and carry no call. Most of these compounds were active or inconclusive in the main read-out, so they are no random draw. Words in brackets tell the shape of the fitted curve; partial curves, single points and poor fits give uncertain potencies.

Assay: qHTS Assay for Modulators of Lamin A Splicing
Conditions: HeLa LMNA splicing GFP/RFP minigene ratio, 48 h
Outline: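 Read-out is the ratio of GFP to DsRed2 object intensity, acquired by 488 nm laser-scanning cytometry on HeLa lamin A-EGFP minigene reporter cells. Compound incubation 48 hrs at 37 °C in Opti-MEM with 2% FBS; DMSO 0.5% final.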

[1] = measured here: RFP viability control channel
[2] = measured here: GFP splicing reporter channel

| SMILES | AC50 [1] | AC50 [2] |
| --- | --- | --- |
| COc1ccc(NC(=O)C2C(=O)NC3(C)CC2c2ccccc2O3)cc1 (configuration not stated) | 31.6 µM [rising, single point] | – |
| O=C(NC1CCCC1)c1sc(=S)n2c1[nH]c(=O)c1ccccc12 | 7.08 µM [rising, partial curve] | – |
| COc1ccc(NC(=O)c2ccc(-n3c(C)ccc3C)cc2)c(OC)c1 | 0.501 µM [rising, full curve, poor fit] | – |
| Cc1ccc(C(CC(=O)O)Nc2nc(N3CCCCC3)nc(N3CCCCC3)n2)cc1 (configuration not stated) | 20 µM [rising, single point] | 11.2 µM [rising, single point] |
| CCCc1cc(C(=O)N/N=C/c2ccc(CC)s2)c2ccccc2n1 | 7.08 µM [falling, partial curve] | 5.01 µM [falling, full curve, poor fit] |
| NC(CO)C(=O)NNCc1ccc(O)c(O)c1O (configuration not stated) | 3.16 µM [falling, single point] | 22.4 µM [falling, partial curve, poor fit] |
| CCCCCCCCCCC(CO)CCCCCCCC (configuration not stated) | 0.0251 µM [rising, full curve, poor fit] | – |
| CCOc1cc(/C=C2/NC(=O)NC2=O)cc([N+](=O)[O-])c1O | – | 0.0891 µM [falling, full curve, poor fit] |
| N#Cc1cc2sc3nnc(-c4ccncc4)n3c2cc1C#N | 35.5 µM [rising, single point] | – |
| COc1cccc(-n2cnc3sc4c(c3c2=O)CCC4)c1 | 0.0112 µM [falling, full curve] | 0.0158 µM [falling, full curve] |
| CCOC(=O)c1c(-c2ccccc2)csc1NC(=S)NC | 15.8 µM [rising, partial curve, poor fit] | – |
| CC1=C(C(=O)OCCNC(=O)c2ccccc2O)C(c2ccccc2[N+](=O)[O-])C(C(=O)OCC2CCCO2)=C(C)N1 (configuration not stated) | 12.6 µM [rising, partial curve] | 17.8 µM [rising, partial curve] |
| Cc1cccc(C(=O)NCN2CCN(c3ccccc3C#N)CC2)c1 | 7.94 µM [rising, partial curve, poor fit] | 35.5 µM [falling, single point] |
| COC(=O)c1cc(COc2ccc3oc(C)c(C(=O)OC)c3c2)c(C)o1 | 35.5 µM [rising, single point] | – |
| COc1ccc(Cl)cc1N/C(N)=N/c1nc(C)cc(C)n1 | 17.8 µM [falling, partial curve, poor fit] | 15.8 µM [falling, partial curve] |
| CCOc1cc(/C=N/Nc2nc3ccccc3[nH]2)cc(Br)c1OCC(=O)N(C)C | – | 2.82 µM [falling, single point] |
| COc1ccc(NC(=O)CN(c2cc(C)cc(C)c2)S(=O)(=O)c2c(C)noc2C)cc1OC | 17.8 µM [rising, partial curve] | – |

| SMILES | AC50 [1] | AC50 [2] |
| --- | --- | --- |
| CCOC(=O)C1(CCc2ccccc2)CCN(Cc2ccc(O)cc2)CC1 | 0.00447 µM [falling, full curve, poor fit] | 0.282 µM [falling, partial curve] |
| Cc1onc(-c2ccccc2Cl)c1C(=O)N1CCN(C/C=C/c2ccccc2)CC1 | 20 µM [rising, partial curve] | – |
| Cc1ccc(-n2c(C)cc(/C=N/NC(=O)c3ccc(CN4CCOCC4)cc3)c2C)cc1 | 17.8 µM [rising, partial curve] | 12.6 µM [rising, partial curve] |
| CCOc1ccc(OCCSc2nnnn2-c2ccccc2)cc1 | 35.5 µM [rising, single point] | – |
| OCCC1CN(Cc2cnn(-c3ccccc3Cl)c2)CCN1Cc1ccsc1 (configuration not stated) | 7.94 µM [falling, partial curve, poor fit] | – |
| COC(=O)c1ccccc1Sc1c(/C=N/OCc2ccc(Cl)cc2)c(C(F)(F)F)nn1C | 11.2 µM [rising, partial curve] | – |
| O=S(=O)(c1ccccc1)c1nc(NC2CC2)sc1Cl | 35.5 µM [falling, single point] | – |
| CCCn1c(=O)c2[nH]c(-c3ccc(OCC(=O)Nc4ccc(C#N)cc4)cc3)nc2n(CCC)c1=O | 2.24 µM [falling, partial curve, poor fit] | 1.78 µM [falling, partial curve, poor fit] |
| CCN(c1ccccc1)S(=O)(=O)c1ccc(C(=O)Nc2nnc(COC)o2)cc1 | 11.2 µM [rising, partial curve] | 8.91 µM [rising, partial curve, poor fit] |
| COc1ccc(OC)c(/C=N/c2c(-c3ccc(O)c(OC)c3)nc3ccccn23)c1 | – | 0.00501 µM [falling, full curve, poor fit] |
| COc1ccc2c(c1)CC/C(=C\C=C\c1ccccc1OC)C2=O | 31.6 µM [rising, single point] | – |
| CCCCOCC1CC(CC#CCN2CCCCC2)C(=O)O1 (configuration not stated) | 0.316 µM [falling, full curve, poor fit] | 0.891 µM [falling, full curve] |
| CC1(C)CC(C)(c2ccc(O)cc2O)N(c2cccc(Cl)c2)C(=S)N1 (configuration not stated) | 11.2 µM [rising, single point] | – |
| Cc1ccc(S(=O)(=O)NCC(=O)N(c2ccccc2)C(C(=O)NCc2ccccc2)c2ccco2)cc1 (configuration not stated) | 14.1 µM [rising, partial curve] | 11.2 µM [rising, partial curve, poor fit] |
| CCNc1nc(NCc2ccccc2)nc(SCC(=O)Nc2ccccc2)n1 | 35.5 µM [rising, partial curve] | – |
| COc1ccc(/C=N/NC(=O)c2ccc(NC(=O)c3cccc([N+](=O)[O-])c3)cc2)c(OC)c1 | – | 0.316 µM [falling, full curve, poor fit] |
| COc1ccc(/C=N/Nc2ncnc3scc(-c4ccccc4)c23)cc1OC | 11.2 µM [rising, partial curve] | – |
